Data taken from US20180153203A1, “(5R)-(ß-D-GLUCOPYRANOSYLOXY)-1,5-DIHYDRO-2H-PYRROL-2-ONE AS UMAMI MOLECULE” (priority 2015, published 2018).

Legend:
Format in all cases: in vivo, human
[1] = system: sensory panel of 5 to 8 trained persons; test: Sensory panel tasting of umami intensity in water; conditions: tasters' description
Method: (§1) The sensory tests were performed in a sensory panel room at 20-25° C. The sensory panel consisted of 5 to 8 trained persons. The technical tasting was measured versus a control sample. Tasters were asked to judge the different products according to umami intensity on a 3-point scale (no umami, umami and intense umami). Additionally the tasters were asked to objectively describe the prototype with comments.
The stereoisomers have been tested to umami intensity as described in example 7.

[2] = system: sensory panel of 5 to 8 trained persons; test: Sensory panel tasting in 0.2% sodium chloride and 0.04% sugar; conditions: C 200 mg/l, tasters' description
Method: as §1

[3] = system: sensory panel of 5 to 8 trained persons; test: Sensory panel tasting in 0.2% sodium chloride and 0.04% sugar and 0.015% IMP + GMP; conditions: 0.2% sodium chloride, tasters' description
Method: as §1

[4] = system: sensory panel of 5 to 8 trained persons; test: Sensory panel tasting in 0.2% sodium chloride and 0.04% sugar and 0.08% MSG; conditions: 0.2% sodium chloride, tasters' description
Method: as §1

With `O=C1C=C[C@H](O[C@H]2O[C@H](CO)[C@@H](O)[C@H](O)[C@H]2O)N1` [alpha-S, (5S)-(α-D-glucopyranosyloxy)-1,5-dihydro-2H-pyrrol-2-one] the comments ([1]; C 100 mg/l) was “chemical, astringent” and the comments ([1]; C 500 mg/l) was “Metallic, bitter”.

With `O=C1C=C[C@H](O[C@@H]2O[C@H](CO)[C@@H](O)[C@H](O)[C@H]2O)N1` [beta-S, (5S)-(β-D-glucopyranosyloxy)-1,5-dihydro-2H-pyrrol-2-one] the comments ([1]; C 200 mg/l) was “bitter” and the comments ([1]; C 500 mg/l) was “Pungent, desinfectant”.

For `O=C1C=C[C@@H](O[C@H]2O[C@H](CO)[C@@H](O)[C@H](O)[C@H]2O)N1` [alpha-R, (5R)-(α-D-glucopyranosyloxy)-1,5-dihydro-2H-pyrrol-2-one], the comments ([1]; C 200 mg/l) was “Bitter, astringent”, the comments ([1]; C 400 mg/l) was “Very bitter, chemical” and the comments ([1]; C 800 mg/l) was “chemical”.

In the case of “(5R)-(β-D-glucopyranosyloxy)-1,5-dihydro-2H-pyrrol-2-one”, the comments [2] is reported as “Sweet, watery”, the comments ([3]; C 200 mg/l) is reported as “Broth-like, salivating” and the comments ([3]; C 500 mg/l) is reported as “Round, different to”. For the same molecule, the comments ([4]; C 200 mg/l) was “Chicken-like, round”, the comments ([4]; C 500 mg/l) was “Round, mouthful,” and the comments ([1]; C 100 mg/l) was “Mouthfulness, round”. For the same molecule, the comments ([1]; C 250 mg/l) was “roundness” and the comments ([1]; C 500 mg/l) was “Umami, roundness”.
